PubChem BioAssay AID1904 | GNF, 2009
Assay: 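Gene silencing that lengthens or shortens period, or boosts amplitude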 (follow-up of hits). Cells: human U2OS osteosarcoma cells stably expressing a destabilised luciferase driven by the Bmal1 promoter. Reagent: siRNA pair against human genes, 12.5 nM (two siRNAs, 0.5 pmol each, per well). Timing: about 3 days after transfection, then luminescence recorded for about 4 days. Measurement: 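Period and amplitude fitted from detrended luminescence traces taken every 2 hours; duplicate wells averaged, compared with the screen mean and grouped into phenotype classes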. Hit rule: 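Active when retesting with individual siRNAs reproduced the period or amplitude change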. Calls: active = confirmed by single siRNAs; inactive = not confirmed.
This is not the whole library: the list holds selected reagents. 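Lists only primary-screen hits; phenotype classes come from fitted traces, and the underlying luminescence values are not given.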

target gene	PubChem SID	clock phenotype class	confirmed with single siRNAs	outcome
JAZF1	SID85104301	longer clock period; seen with two independent siRNA pairs for the gene	phenotype reproduced by individual siRNAs	active
JAZF1	SID85111524	longer clock period; seen with two independent siRNA pairs for the gene	phenotype reproduced by individual siRNAs	active
TCTA	SID85114525	higher rhythm amplitude; seen with one siRNA pair in duplicate wells	phenotype reproduced by individual siRNAs	active
TCTA	SID85125349	higher rhythm amplitude; seen with one siRNA pair in duplicate wells	phenotype reproduced by individual siRNAs	active
ZNF273	SID85115668	shorter clock period; seen with two independent siRNA pairs for the gene	phenotype reproduced by individual siRNAs	active
ZNF273	SID85126492	shorter clock period; seen with two independent siRNA pairs for the gene	phenotype reproduced by individual siRNAs	active
PIAS1	SID85101626	higher rhythm amplitude; seen with two independent siRNA pairs for the gene	phenotype reproduced by individual siRNAs	active
PIAS1	SID85108849	higher rhythm amplitude; seen with two independent siRNA pairs for the gene	phenotype reproduced by individual siRNAs	active
RAB20	SID85103231	longer clock period; seen with two independent siRNA pairs for the gene	phenotype reproduced by individual siRNAs	active
RAB20	SID85110454	longer clock period; seen with two independent siRNA pairs for the gene	phenotype reproduced by individual siRNAs	active
WIG1	SID85123709	longer clock period; seen with two independent siRNA pairs for the gene	phenotype reproduced by individual siRNAs	active
RAP1GA1	SID85114314	longer clock period; seen with two independent siRNA pairs for the gene	phenotype reproduced by individual siRNAs	active
RAP1GA1	SID85125138	longer clock period; seen with two independent siRNA pairs for the gene	phenotype reproduced by individual siRNAs	active
MYL5	SID85113924	longer clock period; seen with two independent siRNA pairs for the gene	not retested with individual siRNAs	
MYL5	SID85124748	longer clock period; seen with two independent siRNA pairs for the gene	not retested with individual siRNAs	
PTGER3	SID85104901	longer clock period; seen with two independent siRNA pairs for the gene	phenotype reproduced by individual siRNAs	active
PTGER3	SID85104941	longer clock period; seen with two independent siRNA pairs for the gene	phenotype reproduced by individual siRNAs	active
PTGER3	SID85112124	longer clock period; seen with two independent siRNA pairs for the gene	phenotype reproduced by individual siRNAs	active
PTGER3	SID85112164	longer clock period; seen with two independent siRNA pairs for the gene	phenotype reproduced by individual siRNAs	active
KIAA0882	SID85115960	shorter clock period; seen with one siRNA pair in duplicate wells	phenotype reproduced by individual siRNAs	active
KIAA0882	SID85126784	shorter clock period; seen with one siRNA pair in duplicate wells	phenotype reproduced by individual siRNAs	active
MT2A	SID85113880	shorter clock period; seen with one siRNA pair in duplicate wells	phenotype reproduced by individual siRNAs	active
MT2A	SID85124704	shorter clock period; seen with one siRNA pair in duplicate wells	phenotype reproduced by individual siRNAs	active
FLJ23514	SID85118037	longer clock period; seen with two independent siRNA pairs for the gene	phenotype reproduced by individual siRNAs	active
FLJ23514	SID85128861	longer clock period; seen with two independent siRNA pairs for the gene	phenotype reproduced by individual siRNAs	active
RABGEF1	SID85116352	longer clock period; seen with two independent siRNA pairs for the gene	phenotype reproduced by individual siRNAs	active
RABGEF1	SID85127176	longer clock period; seen with two independent siRNA pairs for the gene	phenotype reproduced by individual siRNAs	active
RNF103	SID85101735	higher rhythm amplitude; seen with one siRNA pair in duplicate wells	phenotype not reproduced by individual siRNAs	inconclusive
RNF103	SID85108958	higher rhythm amplitude; seen with one siRNA pair in duplicate wells	phenotype not reproduced by individual siRNAs	inconclusive
TD-60	SID85117686	shorter clock period; seen with one siRNA pair in duplicate wells	phenotype reproduced by individual siRNAs	active
TD-60	SID85128510	shorter clock period; seen with one siRNA pair in duplicate wells	phenotype reproduced by individual siRNAs	active
FLJ20605	SID85117271	shorter clock period; seen with two independent siRNA pairs for the gene	phenotype reproduced by individual siRNAs	active
FLJ20605	SID85128095	shorter clock period; seen with two independent siRNA pairs for the gene	phenotype reproduced by individual siRNAs	active
DMAP1	SID85117770	higher rhythm amplitude; seen with two independent siRNA pairs for the gene	phenotype reproduced by individual siRNAs	active
DMAP1	SID85128594	higher rhythm amplitude; seen with two independent siRNA pairs for the gene	phenotype reproduced by individual siRNAs	active
ZNF261	SID85122832	longer clock period; seen with two independent siRNA pairs for the gene	phenotype reproduced by individual siRNAs	active
GPR158	SID85105003	longer clock period; seen with two independent siRNA pairs for the gene	phenotype reproduced by individual siRNAs	active
GPR158	SID85112226	longer clock period; seen with two independent siRNA pairs for the gene	phenotype reproduced by individual siRNAs	active

The list goes on (9 carried over from the part before).
target gene	PubChem SID	clock phenotype class	confirmed with single siRNAs	outcome
TD-60	SID85117686	shorter clock period; seen with one siRNA pair in duplicate wells	phenotype reproduced by individual siRNAs	active
TD-60	SID85128510	shorter clock period; seen with one siRNA pair in duplicate wells	phenotype reproduced by individual siRNAs	active
FLJ20605	SID85117271	shorter clock period; seen with two independent siRNA pairs for the gene	phenotype reproduced by individual siRNAs	active
FLJ20605	SID85128095	shorter clock period; seen with two independent siRNA pairs for the gene	phenotype reproduced by individual siRNAs	active
DMAP1	SID85117770	higher rhythm amplitude; seen with two independent siRNA pairs for the gene	phenotype reproduced by individual siRNAs	active
DMAP1	SID85128594	higher rhythm amplitude; seen with two independent siRNA pairs for the gene	phenotype reproduced by individual siRNAs	active
ZNF261	SID85122832	longer clock period; seen with two independent siRNA pairs for the gene	phenotype reproduced by individual siRNAs	active
GPR158	SID85105003	longer clock period; seen with two independent siRNA pairs for the gene	phenotype reproduced by individual siRNAs	active
GPR158	SID85112226	longer clock period; seen with two independent siRNA pairs for the gene	phenotype reproduced by individual siRNAs	active
CES1	SID85099208	shorter clock period; seen with one siRNA pair in duplicate wells	phenotype not reproduced by individual siRNAs	inconclusive
CES1	SID85106431	shorter clock period; seen with one siRNA pair in duplicate wells	phenotype not reproduced by individual siRNAs	inconclusive
CCT5	SID85102302	shorter clock period; seen with two independent siRNA pairs for the gene	phenotype reproduced by individual siRNAs	active
CCT5	SID85109525	shorter clock period; seen with two independent siRNA pairs for the gene	phenotype reproduced by individual siRNAs	active
ZSWIM3	SID85120170	longer clock period; seen with two independent siRNA pairs for the gene	not retested with individual siRNAs	
ZSWIM3	SID85130994	longer clock period; seen with two independent siRNA pairs for the gene	not retested with individual siRNAs	
DKFZP564O0463	SID85116211	shorter clock period; seen with one siRNA pair in duplicate wells	phenotype not reproduced by individual siRNAs	inconclusive
DKFZP564O0463	SID85127035	shorter clock period; seen with one siRNA pair in duplicate wells	phenotype not reproduced by individual siRNAs	inconclusive
SLC22A8	SID85114883	longer clock period; seen with two independent siRNA pairs for the gene	phenotype reproduced by individual siRNAs	active
SLC22A8	SID85125707	longer clock period; seen with two independent siRNA pairs for the gene	phenotype reproduced by individual siRNAs	active
LIMK1	SID85105549	longer clock period; seen with two independent siRNA pairs for the gene	phenotype reproduced by individual siRNAs	active
LIMK1	SID85112772	longer clock period; seen with two independent siRNA pairs for the gene	phenotype reproduced by individual siRNAs	active
RBX1	SID85101855	longer clock period; seen with two independent siRNA pairs for the gene	phenotype reproduced by individual siRNAs	active
RBX1	SID85109078	longer clock period; seen with two independent siRNA pairs for the gene	phenotype reproduced by individual siRNAs	active
SH3GL2	SID85114505	shorter clock period; seen with one siRNA pair in duplicate wells	phenotype reproduced by individual siRNAs	active
SH3GL2	SID85125329	shorter clock period; seen with one siRNA pair in duplicate wells	phenotype reproduced by individual siRNAs	active
SLC3A1	SID85101106	longer clock period; seen with two independent siRNA pairs for the gene	phenotype reproduced by individual siRNAs	active
SLC3A1	SID85108329	longer clock period; seen with two independent siRNA pairs for the gene	phenotype reproduced by individual siRNAs	active
RNP	SID85117218	higher rhythm amplitude; seen with one siRNA pair in duplicate wells	phenotype reproduced by individual siRNAs	active
RNP	SID85128042	higher rhythm amplitude; seen with one siRNA pair in duplicate wells	phenotype reproduced by individual siRNAs	active
FOXA3	SID85113735	longer clock period; seen with two independent siRNA pairs for the gene	phenotype reproduced by individual siRNAs	active
FOXA3	SID85124559	longer clock period; seen with two independent siRNA pairs for the gene	phenotype reproduced by individual siRNAs	active
OR51B2	SID85104807	shorter clock period; seen with two independent siRNA pairs for the gene	phenotype reproduced by individual siRNAs	active
OR51B2	SID85112030	shorter clock period; seen with two independent siRNA pairs for the gene	phenotype reproduced by individual siRNAs	active
RLN3R2	SID85104436	longer clock period; seen with two independent siRNA pairs for the gene	phenotype reproduced by individual siRNAs	active
RLN3R2	SID85111659	longer clock period; seen with two independent siRNA pairs for the gene	phenotype reproduced by individual siRNAs	active
PHEX	SID85100657	longer clock period; seen with two independent siRNA pairs for the gene	phenotype reproduced by individual siRNAs	active
PHEX	SID85107880	longer clock period; seen with two independent siRNA pairs for the gene	phenotype reproduced by individual siRNAs	active
tAKR	SID85104528	shorter clock period; seen with two independent siRNA pairs for the gene	phenotype reproduced by individual siRNAs	active
tAKR	SID85111751	shorter clock period; seen with two independent siRNA pairs for the gene	phenotype reproduced by individual siRNAs	active
EXOSC4	SID85117076	longer clock period; seen with two independent siRNA pairs for the gene	phenotype not reproduced by individual siRNAs	inconclusive
EXOSC4	SID85127900	longer clock period; seen with two independent siRNA pairs for the gene	phenotype not reproduced by individual siRNAs	inconclusive
SPR	SID85101289	higher rhythm amplitude; seen with one siRNA pair in duplicate wells	not retested with individual siRNAs	
SPR	SID85108512	higher rhythm amplitude; seen with one siRNA pair in duplicate wells	not retested with individual siRNAs	
DOK5	SID85103336	higher rhythm amplitude; seen with one siRNA pair in duplicate wells	phenotype not reproduced by individual siRNAs	inconclusive
DOK5	SID85110559	higher rhythm amplitude; seen with one siRNA pair in duplicate wells	phenotype not reproduced by individual siRNAs	inconclusive
NOC4	SID85115440	shorter clock period; seen with one siRNA pair in duplicate wells	phenotype reproduced by individual siRNAs	active
NOC4	SID85126264	shorter clock period; seen with one siRNA pair in duplicate wells	phenotype reproduced by individual siRNAs	active
TNT	SID85120838	higher rhythm amplitude; seen with one siRNA pair in duplicate wells	not retested with individual siRNAs	
TNT	SID85131662	higher rhythm amplitude; seen with one siRNA pair in duplicate wells	not retested with individual siRNAs	
TSHB	SID85101397	longer clock period; seen with two independent siRNA pairs for the gene	phenotype reproduced by individual siRNAs	active
TSHB	SID85108620	longer clock period; seen with two independent siRNA pairs for the gene	phenotype reproduced by individual siRNAs	active
ZBTB20	SID85116334	shorter clock period; seen with one siRNA pair in duplicate wells	phenotype not reproduced by individual siRNAs	inconclusive
ZBTB20	SID85127158	shorter clock period; seen with one siRNA pair in duplicate wells	phenotype not reproduced by individual siRNAs	inconclusive
GPR135	SID85105005	longer clock period; seen with two independent siRNA pairs for the gene	phenotype reproduced by individual siRNAs	active
GPR135	SID85112228	longer clock period; seen with two independent siRNA pairs for the gene	phenotype reproduced by individual siRNAs	active
